The values that follow come from the supplement of paper PMC4256282, “Profound Activity of the Anti-cancer Drug Bortezomib against Echinococcus multilocularis Metacestodes Identifies the Proteasome as a Novel Drug Target for Cestodes” (PLoS Neglected Tropical Diseases, 2014).

Where a name gives a salt, the structure may show the parent alone. The list shows a part of the results. Single values are uncertain, as repeats are few or missing.

In this test the test system is Echinococcus multilocularis metacestodes. Put plainly: vesicle damage (PGI release) relative to positive control DB1127 at 20 µM, DMSO subtracted; higher = more parasite damage. As to conditions: treatment time 5 days.
In the case of `Cc1ccc(-c2cc(C(F)(F)F)nn2-c2ccc(S(N)(=O)=O)cc2)cc1` [Celecoxib], the vesicle damage was found to be 33.2%.
Under `CN(CCOc1ccc(CC2SC(=O)NC2=O)cc1)c1ccccn1` (stereo not drawn) [Rosiglitazone maleate] stands 1.05%; under `Cc1nc(Nc2ncc(C(=O)Nc3c(C)cccc3Cl)s2)cc(N2CCN(CCO)CC2)n1` [Dasatinib], -0.523%.
Under `CCCCNc1ccc(C(=O)OCCN(C)C)cc1` [Tetracaine hydrochloride] stands 1.75%.
Under `C=CC1=C(C(=O)O)N2C(=O)[C@@H](NC(=O)/C(=N\O)c3csc(N)n3)[C@H]2SC1` [Cefdinir] stands -1.6%; under `CNS(=O)(=O)Cc1ccc2[nH]cc(CCN(C)C)c2c1` [Sumatriptan succinate], -3.44%.
`CCCC(=O)[O-].[Na+]` [Sodium butyrate]: the vesicle damage was -9.66%.
As for `O=C(c1ccccc1)c1ccc2n1CCC2C(=O)O` (stereo not drawn) [Ketorolac Tromethamine], the vesicle damage is -1.05%.
Under `CC(C)NCC(O)c1ccc(NS(C)(=O)=O)cc1` (stereo not drawn) [Sotalol hydrochloride] stands 2.87%.
Under `CO[C@@H]1[C@@H](OC(N)=O)[C@@H](O)[C@H](Oc2ccc3c(O)c(NC(=O)c4ccc(O)c(CC=C(C)C)c4)c(=O)oc3c2C)OC1(C)C` [Novobiocin sodium] stands 4.42%; under `CN1[C@@H]2CC[C@H]1C[C@@H](OC(=O)c1c[nH]c3ccccc13)C2` [Tropisetron hydrochloride], -12.6%; under `CCOC(=O)[C@H](CCc1ccccc1)N[C@@H](C)C(=O)N1[C@H](C(=O)O)C[C@@H]2CCC[C@@H]21` [Ramipril], -12.2%.
Under `CC1COc2c(N3CCN(C)CC3)c(F)cc3c(=O)c(C(=O)O)cn1c23` (stereo not drawn) [Ofloxacin] stands -3.49%.
Consider `C[C@]12CC[C@@H]3c4ccc(O)cc4CC[C@H]3[C@@H]1CC[C@@H]2O` [Estradiol], for which the vesicle damage is -8.43%.
With `CC(=O)OCC(=O)[C@@]1(O)CC[C@H]2[C@@H]3CCC4=CC(=O)C=C[C@]4(C)[C@H]3[C@@H](O)C[C@@]21C` [Prednisolone acetate], the vesicle damage stood at 2.52%.
Under `CCOC(=O)C(C)(C)Oc1ccc(Cl)cc1` [Clofibrate] stands -13.9%.
Then `CN(C)CCc1c[nH]c2ccc(C[C@H]3COC(=O)N3)cc12` [Zolmitriptan], with 1.11%.
With `CCC[C@@H]1C[C@@H](C(=O)N[C@@H]([C@H]2O[C@H](SC)[C@H](O)[C@@H](O)[C@H]2O)[C@@H](C)O)N(C)C1` [Lincomycin hydrochloride], the vesicle damage stood at 2.74%.
Under `CC(C)Cc1ccc(C(C)C(=O)O)cc1` (stereo not drawn) [Ibuprofen Lysine] stands -0.237%; under `C[C@@H](O)[C@H]1C(=O)N2C(C(=O)[O-])=C(SC3Cn4cnc[n+]4C3)[C@H](C)[C@H]12` (stereo partly drawn) [Biapenem], 0.399%; under `CC(C)C[C@H](NC(=O)[C@H](Cc1ccccc1)NC(=O)c1cnccn1)B(O)O` [Bortezomib], 141%.
Then `NCCCCCC(=O)O` [Aminocaproic acid], with -1.22%; and `CCOc1cc(CC(=O)N[C@@H](CC(C)C)c2ccccc2N2CCCCC2)ccc1C(=O)O` [Repaglinide], with -3.38%.
Under `CC(=O)N1CCN(c2ccc(OCC3COC(Cn4ccnc4)(c4ccc(Cl)cc4Cl)O3)cc2)CC1` (stereo not drawn) [Ketoconazole] stands 2.96%.
As to `CO[C@H]1/C=C/O[C@@]2(C)Oc3c(C)c(O)c4c(c3C2=O)C2=NC3(CCN(CC(C)C)CC3)NC2=C(NC(=O)/C(C)=C\C=C\[C@H](C)[C@H](O)[C@@H](C)[C@@H](O)[C@@H](C)[C@H](OC(C)=O)[C@@H]1C)C4=O` [Rifabutin], the vesicle damage was -1.04%.
Regarding `CC(C)Cn1cnc2c(N)nc3ccccc3c21` [Imiquimod], the vesicle damage was 1.82%.
Then `CN(C/C=C/C#CC(C)(C)C)Cc1cccc2ccccc12` [Terbinafine hydrochloride], with 0.946%; and `CCCC(CCC)C(=O)O` [Divalproex sodium], with -1.42%; and `O=C(O)CSCC(=O)NC1CCSC1=O` (stereo not drawn) [Erdosteine], with 1.96%.
Consider `CCC[C@@H]1C[C@@H](C(=O)N[C@@H]([C@H]2O[C@H](SC)[C@H](O)[C@@H](O)[C@H]2O)[C@H](C)Cl)N(C)C1` [Clindamycin hydrochloride], for which the vesicle damage was -1.13%.
Then `O=P(O)(O)C(O)(Cn1ccnc1)P(=O)(O)O` [Zoledronic Acid], with -0.295%; and `CCn1cc(C(=O)O)c(=O)c2cc(F)c(N3CCNCC3)cc21` [Norfloxacin], with 0.615%; and `CN(C)c1ccc(C(=C2C=CC(=[N+](C)C)C=C2)c2ccc(N(C)C)cc2)cc1` [Crystal violet], with 128%.
